Measured values published in US20050136053A1 (DYAX, published 2005).
Changes are numbered by the printed parent chain. No constants are given. Whether binding was seen depends on the method and setting. Some binding calls cover weakened binding; strength is not graded here. Blank lines part the entries; values can stand above or below the binder they belong to.

The chains behind the UniProt entries cited, without tags or fusion partners. Where a name states a change or a piece, a line headed by the entry shows the natural chain unless it says otherwise.
UniProt P35590: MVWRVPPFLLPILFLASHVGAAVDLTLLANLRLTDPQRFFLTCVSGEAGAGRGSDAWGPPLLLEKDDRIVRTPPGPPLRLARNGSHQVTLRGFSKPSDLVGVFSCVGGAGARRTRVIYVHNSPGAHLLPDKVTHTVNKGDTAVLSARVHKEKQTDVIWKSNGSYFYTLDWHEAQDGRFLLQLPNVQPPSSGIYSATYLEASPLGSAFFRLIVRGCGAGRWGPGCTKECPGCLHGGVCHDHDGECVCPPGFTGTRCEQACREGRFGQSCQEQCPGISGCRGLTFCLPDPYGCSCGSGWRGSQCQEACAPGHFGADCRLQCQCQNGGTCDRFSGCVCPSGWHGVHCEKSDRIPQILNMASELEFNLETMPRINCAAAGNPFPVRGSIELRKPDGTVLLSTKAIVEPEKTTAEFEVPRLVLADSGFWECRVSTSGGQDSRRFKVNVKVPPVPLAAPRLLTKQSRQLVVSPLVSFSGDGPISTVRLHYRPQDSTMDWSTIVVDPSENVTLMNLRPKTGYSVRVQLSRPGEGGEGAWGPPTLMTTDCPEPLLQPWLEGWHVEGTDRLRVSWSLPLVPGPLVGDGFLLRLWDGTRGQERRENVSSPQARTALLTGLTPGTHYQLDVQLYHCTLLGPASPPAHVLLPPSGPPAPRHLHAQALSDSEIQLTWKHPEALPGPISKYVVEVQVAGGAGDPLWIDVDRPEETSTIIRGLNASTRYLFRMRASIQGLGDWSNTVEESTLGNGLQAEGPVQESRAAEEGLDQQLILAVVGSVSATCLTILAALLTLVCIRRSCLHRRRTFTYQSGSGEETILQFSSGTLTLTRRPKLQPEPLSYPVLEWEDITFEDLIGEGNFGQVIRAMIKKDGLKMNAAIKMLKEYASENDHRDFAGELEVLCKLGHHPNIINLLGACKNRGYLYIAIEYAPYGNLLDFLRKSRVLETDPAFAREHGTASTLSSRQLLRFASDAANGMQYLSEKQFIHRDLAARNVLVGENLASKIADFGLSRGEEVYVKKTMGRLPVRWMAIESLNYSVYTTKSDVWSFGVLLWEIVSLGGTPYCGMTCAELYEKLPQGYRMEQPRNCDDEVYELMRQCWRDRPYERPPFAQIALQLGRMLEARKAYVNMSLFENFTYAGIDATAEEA

Assays:
[1] = biological target: V5-tagged full length human Tie1 expressed in COS1 cells (pcDNA3-Tie1-V5) (human) (UniProt P35590); experiment: Western blot, immunoprecipitation and immunofluorescence
[2] = biological target: endogenous human Tie1 (primary human endothelial cells, HUVEC, human tissue sections, SW480 cells) (human) (UniProt P35590); experiment: as above
[3] = biological target: endogenous human Tie1 (primary human endothelial cells, HUVEC, human tissue sections, SW480 cells) (human) (UniProt P35590); experiment: immunoprecipitation, HDMEC
[4] = biological target: endogenous human Tie1 (primary human endothelial cells, HUVEC, human tissue sections, SW480 cells) (human) (UniProt P35590); experiment: immunofluorescence, HDMEC
[5] = biological target: V5-tagged full length human Tie1 expressed in COS1 cells (pcDNA3-Tie1-V5) (human) (UniProt P35590); experiment: immunoprecipitation, Tie1-V5-transfected COS1 cells
[6] = biological target: endogenous human Tie1 (primary human endothelial cells, HUVEC, human tissue sections, SW480 cells) (human) (UniProt P35590); experiment: Western blot, HDMEC
[7] = biological target: V5-tagged full length human Tie1 expressed in COS1 cells (pcDNA3-Tie1-V5) (human) (UniProt P35590); experiment: Western blot, Tie1-V5-transfected COS1 cells
[8] = biological target: V5-tagged full length human Tie1 expressed in COS1 cells (pcDNA3-Tie1-V5) (human) (UniProt P35590); experiment: immunofluorescence, Tie1-V5-transfected COS1 cells
[9] = biological target: endogenous human Tie1 (primary human endothelial cells, HUVEC, human tissue sections, SW480 cells) (human) (UniProt P35590); experiment: Western blot, HDMEC; Western blot, HDMEC
[10] = biological target: endogenous human Tie1 (primary human endothelial cells, HUVEC, human tissue sections, SW480 cells) (human) (UniProt P35590); experiment: immunofluorescence, HDMEC; immunofluorescence, HDMEC

binding [1]: binds | binding [2]: binds | binding [3]: binds | binding [4]: binds | binding [5]: binds | binding [6]: binds | binding [7]: binds | binding [8]: binds
B1: anti-Tie1 antibody s-A10, IgG (antibody, V domains shown)
VH: EVQLLESGGGLVQPGGSLRLSCAASGFTFSNYVMVWVRQAPGKGLEWVSGIYPSGGHTKYADSVKGRFTISRDNSKNTLYLQMNSLRAEDTAVYYCARVNYYDSSGYGPIAPGLDYWGQGTLV
VL: DIQMTQSPGTLSLSPGERATLFCRASQRVTSNSLAWYQQRPGQAPRLLIYDASTRATGIPDRFSGSGSGRDFTLTISRLEPEDFAVYYCQRYGSSVLYSFGQGTKLEIT

binding [1]: binds | binding [7]: binds | binding [9]: binds | binding [10]: binds | binding [8]: binds
B2: anti-Tie1 antibody p-F3, IgG (antibody, V domains shown)
VH: EVQLLESGGGLVQPGGSLRLSCAASGFTFSMYGMGWVRQAPGKGLEWVSVISPSGGQTAYADSVKGRFTISRDNSKNTLYLQMNSLRAEDTAVYYCARVALLLGHAFDIWGQGTMVTVSS
VL: DIQMTQSPSTLSASLGDRVTITCRASESISRWLAWYQQKPGKAPKLLMYEASTLESGVPSRFTGTGSGTEFTLTISSLQPDDFATYYCQQRSNWPLTFGGG

binding [1]: binds | binding [2]: binds | binding [3]: binds | binding [4]: binds | binding [5]: binds | binding [6]: binds | binding [7]: binds | binding [8]: binds
B3: anti-Tie1 antibody s-H4, IgG (antibody, V domains shown)
VH: EVQLLESGGGLVQPGGSLRLSCAASGFTFSSYKMGWVRQAPGKGLEWVSSIYPSGGWTHYADSVKGRFTISRDNSKNTLYLQMNSLRAEDTAVYYCARVLLHYFDYWGQGTLV
VL: AQSVLTQPASVSGSPGQSITISCTGTSSDVGGYKYVSWYQQHPGKAPKLIISDVNNRPSGVSDRFSGSKSGNTASLTISGLQAEDDGDYYCSSYASSSYTSSTTWVFGGGTKLTVLG

binding [1]: binds | binding [2]: binds | binding [3]: binds | binding [4]: binds | binding [5]: binds | binding [6]: binds | binding [7]: binds | binding [8]: binds
B4: anti-Tie1 antibody s-A2, IgG (antibody, V domains shown)
VH: EVQLLESGGGLVQPGGSLRLSCAASGFTFSRYTMMWVRQAPGKGLEWVSGIYPSGGVTLYADSVKGRFTISRDNSKNTLYLQMNSLRAEDTAVYYCARVNYYDSSGYGPIAPGLDYWGQGTLVTVSS
VL: DIQMTQSPGTLSLSPGERATLSCRASRSVIISYVAWYQQKPGQAPRLLIYGASTRATGIPDRFSGSGSGTDFTLTISRLEPEDFAVYFCQLYGRSPRIIFGQGTRLEIK

binding [1]: binds | binding [2]: binds | binding [3]: binds | binding [4]: binds | binding [5]: binds | binding [6]: binds | binding [7]: binds | binding [8]: binds
B5: anti-Tie1 antibody s-C2, IgG (antibody, V domains shown)
VH: B4 VH with T33K, M35K, G50V, V57G, L59G
VL: AQSVLTQPDSVSGSPGESITISCTGSSRDVGGYNYVSWYQQHPGKAPKLLLYDVTYRPSGISGRFSGSKSGDTASLTISGLRTEDEADYYCSSSIGTRTYVFGSGTKVTVLR

binding [1]: binds | binding [2]: binds | binding [3]: binds | binding [4]: binds | binding [5]: binds | binding [6]: binds | binding [7]: binds | binding [8]: binds
B6: anti-Tie1 antibody s-B9, IgG (antibody, V domains shown)
VH: B4 VH with R31S, T33V, V57W, L59Y, A61T
VL: DIQMTQSPSSLSASVGDRVTITCRASQSVSSHLSWFQQRPGKAPNLLIYHASSLQSGVPSRFSGSGSGTDFTLTISSLQPEDFATYYCQQSYATSSITFGQGTRLDIK

binding [1]: binds | binding [2]: binds | binding [3]: binds | binding [4]: binds | binding [5]: binds | binding [6]: binds | binding [7]: binds | binding [8]: binds
B7: anti-Tie1 antibody s-C10, IgG (antibody, V domains shown)
VH: B4 VH with R31A, T33G, M35S, G50V, V57W, L59Y
VL: DIQMTQSPGTLSLSPGERATLSCRASQSVSSSYLAWYQQKPGQAPRLLIYGASSRATGIPDRFSGSGSGTDFTLTISRLEPEDFAVYYCQQYNNWPRTFGQGTKVEIK

binding [1]: binds | binding [2]: binds | binding [3]: binds | binding [4]: binds | binding [5]: binds | binding [6]: binds | binding [7]: binds | binding [8]: binds
B8: anti-Tie1 antibody s-C7, IgG (antibody, V domains shown)
VH: EVQLLESGGGLVQPGGSLRLSCAASGFTFSRYVMYWVRQAPGKGLEWVSVIYPSGGATYYADSVKGRFTISRDNSKNTLYLQMNSLRAEDTAVYYCARRGSSGAFDYWGQGTLVTVSS
VL: AQSVLTQPASVSGSPGQSITISCTGTSSDIGRYNYASWYQQRPGKSPKLLIYEVSDRPSGVSNRFSGSKSGNTASLIISGLQAEDEADYYCSSYSSTNSLQVVFGGGTKLSVLG
